Measured values published in PMC3409183.

Chains of the proteins cited; added tags and fusions are not shown. Lines headed by an entry give the natural chain unless they say otherwise; changes in a name come on top.
UniProt Q38CY8: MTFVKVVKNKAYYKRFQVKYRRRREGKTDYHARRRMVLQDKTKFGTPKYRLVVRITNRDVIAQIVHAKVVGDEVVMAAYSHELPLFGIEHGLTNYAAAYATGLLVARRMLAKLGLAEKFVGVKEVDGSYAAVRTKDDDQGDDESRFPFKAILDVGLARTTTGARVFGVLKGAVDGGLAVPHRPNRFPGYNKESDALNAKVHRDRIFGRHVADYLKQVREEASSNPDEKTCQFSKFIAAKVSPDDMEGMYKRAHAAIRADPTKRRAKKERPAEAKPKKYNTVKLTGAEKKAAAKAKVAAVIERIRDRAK
UniProt O15758: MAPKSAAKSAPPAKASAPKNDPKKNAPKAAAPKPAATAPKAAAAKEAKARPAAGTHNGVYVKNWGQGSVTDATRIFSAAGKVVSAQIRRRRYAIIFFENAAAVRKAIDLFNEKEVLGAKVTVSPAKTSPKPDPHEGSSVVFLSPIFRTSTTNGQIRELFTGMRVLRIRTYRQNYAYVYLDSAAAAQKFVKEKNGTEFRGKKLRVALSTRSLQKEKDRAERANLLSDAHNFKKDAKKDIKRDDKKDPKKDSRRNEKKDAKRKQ
UniProt O15759: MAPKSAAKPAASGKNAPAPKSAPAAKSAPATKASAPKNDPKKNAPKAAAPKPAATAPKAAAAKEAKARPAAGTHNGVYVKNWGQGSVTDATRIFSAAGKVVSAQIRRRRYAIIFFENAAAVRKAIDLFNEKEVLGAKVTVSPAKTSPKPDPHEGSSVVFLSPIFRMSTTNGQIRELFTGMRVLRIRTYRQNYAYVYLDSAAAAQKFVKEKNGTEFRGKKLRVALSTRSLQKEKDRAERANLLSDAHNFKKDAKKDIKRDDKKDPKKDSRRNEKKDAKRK

Biological target: recombinant T. brucei ribosomal protein L5 (histidine fusion) (T. brucei) (UniProt Q38CY8)
Experiment: co-IP; 100 ng recombinant L5 with 100 ng recombinant P34 or P37, without or with stoichiometric in vitro-transcribed 5S rRNA; Dynabeads cross-linked to anti-L5 peptide antibody, western blot with anti-P34/P37; both purified

For “recombinant P34 (NRBD1) (histidine fusion) (from UniProt O15758)”, the binding was “binds”.
“recombinant P37 (NRBD2) (histidine fusion) (from UniProt O15759)” was tested, and the binding was “binds”.

Results are given in words; binding and its absence hold for the method and conditions named. Binding seen in cells or lysates may run through a third protein. Binding can be weak; no strength is given.
